This list was built around the results that the source calls inconclusive (neither active nor inactive); the mix of calls is not that of the screen. A potency beside an inconclusive call is a rough fit, not a confirmed value. Activity calls are given as the source filed them. The call rests on the fitted dose curve; in most records, active means well fitted cell-killing curve with a large enough effect; inconclusive means small, poorly fitted or top-dose-only effect, or effect the other way; inactive means no such curve, though single readings can be large or run the other way.
Assay: Quantitative High-Throughput drug screen in 47 multiple myeloma cell lines against the NCATS MIPE library collection: EJM_DSMZ cell viability assay (AID 1918926; further: nearly all actives have a fitted effect of over 30% in size)
Conditions: EJM myeloma cell viability, CellTiter-Glo ATP, 48 h; series mostly up to 45.8 µM
Method in brief: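 qHTS of the MIPE 4.0 collection: 500 myeloma cells/well, 48 h drug exposure at 37C in 5% CO2, then CellTiter-Glo for 5 min at room temperature before luminescence reading.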
Potency means the concentration at half of the fitted maximal effect.

Row | SMILES | Potency
1 | CC1(CN2CCC(n3c(=O)[nH]c4ccccc43)CC2)OCc2ccccc2-n2cccc21 (stereo not drawn) | inconclusive: 23.5 µM [cytotoxic, partial curve, poor fit]
2 | C=C1C[C@@]2(O)O[C@@]3(C[C@H]2C(C)C)[C@H](C)CC[C@H]13 | inactive
3 | CC12CC3CC(C)(C1)CC(N)(C3)C2 | inconclusive: 33.2 µM [cytotoxic, single point]
4 | Nc1[nH]nc2nnc(-c3c(-c4ccccc4)nn4ccccc34)cc12 | inconclusive: 29.6 µM [cytotoxic, single point]
5 | CC(C)c1cnn2c(NCc3ccccc3)cc(NCCCCCCN)nc12 | active: 13.2 µM
6 | CCN[C@H]1C[C@H](C)S(=O)(=O)c2sc(S(N)(=O)=O)cc21 | inconclusive: 83.3 µM [cytotoxic, single point]
7 | CC(C(C)N1CC(=O)NC(=O)C1)N1CC(=O)NC(=O)C1 (stereo not drawn) | inactive
8 | CC(C[N+](C)(C)C)OC(N)=O (stereo not drawn) | inactive
9 | CN1C(C(=O)Nc2ccccn2)=C(O)c2sc(Cl)cc2S1(=O)=O | inconclusive: 1.32 µM [cytotoxic, full curve]
10 | Nc1nc(N)c2nc(CNc3ccc(C(=O)NC(CCC(=O)O)C(=O)O)cc3)cnc2n1 (stereo not drawn) | inconclusive: 26.4 µM [cytotoxic, single point]
11 | O=c1n(CCCN2CCN(c3cccc(Cl)c3)CC2)nc2ccccn12 | inactive
12 | COC(=O)Nc1nc2ccc(C(=O)c3cccs3)cc2[nH]1 | inconclusive: 0.0264 µM [cytotoxic, full curve]
13 | CCOc1ccccc1N=Nc1c(C)[nH]n(-c2nc(-c3ccccc3)cs2)c1=O | inconclusive: 18.7 µM [cytotoxic, partial curve]

Two records picked at random from those above:
Row | SMILES | Potency
10 | Nc1nc(N)c2nc(CNc3ccc(C(=O)NC(CCC(=O)O)C(=O)O)cc3)cnc2n1 (stereo not drawn) | inconclusive: 26.4 µM [cytotoxic, single point]
9 | CN1C(C(=O)Nc2ccccn2)=C(O)c2sc(Cl)cc2S1(=O)=O | inconclusive: 1.32 µM [cytotoxic, full curve]

Source: PubChem BioAssay (NCATS)
